Measurements as given in PMC8248824 (Acta Crystallographica. Section F, Structural Biology …, 2021).
These are yes or no findings as the source states them, for the method shown. Sequences can lack the tags named with a protein.

Biological target: DARPin D5 from the pQiq_FLAG expression vector (N-terminal His6 tag, C-terminal FLAG tag)
Experiment: SEC; analytical size-exclusion chromatography, AKTAmicro, Superdex 200 Increase 5/150 GL, of the purified DARPins alone; both purified

B1: DARPin D5 from the pQiq_FLAG expression vector (N-terminal His6 tag, C-terminal FLAG tag) (designed binder)
chain: DLGKKLLEAARAGQDDEVRILMANGADVNAFDHNGSTPLHLAAAIGHLEIVEVLLKYGADVNAEDNWGNTPLHQAAWVGHLEIVEVLLKNGADVNAQDKFGKTAFDISIDNGNEDLAEILQKLN
notes: DARPin D5 itself, as printed within the crystallisation construct (from Asp13); source: E. coli XL1 Blue, purified (HisPur Cobalt Spin Plates)
**Q.** Which binding does the source give for B1 here?
**A.** no binding
